According to the supplement of paper PMC6411743:
± gives the standard deviation of the averaged measurements. The list shows a part of the results, in another mix than the full data.

Chains of the proteins cited; added tags and fusions are not shown. Lines headed by an entry give the natural chain unless they say otherwise; changes in a name come on top.
UniProt Q96CD2: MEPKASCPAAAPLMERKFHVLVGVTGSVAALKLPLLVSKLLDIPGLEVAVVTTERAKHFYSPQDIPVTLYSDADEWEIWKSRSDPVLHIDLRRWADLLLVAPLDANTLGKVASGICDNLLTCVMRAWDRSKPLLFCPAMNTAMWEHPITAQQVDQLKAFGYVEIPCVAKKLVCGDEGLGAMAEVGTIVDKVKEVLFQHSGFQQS
UniProt Q9BTT0: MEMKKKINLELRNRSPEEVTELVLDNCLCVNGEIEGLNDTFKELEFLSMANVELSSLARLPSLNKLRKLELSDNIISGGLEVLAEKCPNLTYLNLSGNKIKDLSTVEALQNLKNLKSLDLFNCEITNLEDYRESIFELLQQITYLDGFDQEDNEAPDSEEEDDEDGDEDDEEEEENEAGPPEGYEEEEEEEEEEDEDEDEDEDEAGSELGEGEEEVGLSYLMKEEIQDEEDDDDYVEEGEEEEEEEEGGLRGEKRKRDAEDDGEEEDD
UniProt Q96B54: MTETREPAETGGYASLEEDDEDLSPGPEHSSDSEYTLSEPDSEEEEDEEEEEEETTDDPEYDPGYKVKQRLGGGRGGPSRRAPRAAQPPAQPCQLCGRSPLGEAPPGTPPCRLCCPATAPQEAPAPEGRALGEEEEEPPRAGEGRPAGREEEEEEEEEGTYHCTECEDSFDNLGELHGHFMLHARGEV
UniProt Q8IWI9: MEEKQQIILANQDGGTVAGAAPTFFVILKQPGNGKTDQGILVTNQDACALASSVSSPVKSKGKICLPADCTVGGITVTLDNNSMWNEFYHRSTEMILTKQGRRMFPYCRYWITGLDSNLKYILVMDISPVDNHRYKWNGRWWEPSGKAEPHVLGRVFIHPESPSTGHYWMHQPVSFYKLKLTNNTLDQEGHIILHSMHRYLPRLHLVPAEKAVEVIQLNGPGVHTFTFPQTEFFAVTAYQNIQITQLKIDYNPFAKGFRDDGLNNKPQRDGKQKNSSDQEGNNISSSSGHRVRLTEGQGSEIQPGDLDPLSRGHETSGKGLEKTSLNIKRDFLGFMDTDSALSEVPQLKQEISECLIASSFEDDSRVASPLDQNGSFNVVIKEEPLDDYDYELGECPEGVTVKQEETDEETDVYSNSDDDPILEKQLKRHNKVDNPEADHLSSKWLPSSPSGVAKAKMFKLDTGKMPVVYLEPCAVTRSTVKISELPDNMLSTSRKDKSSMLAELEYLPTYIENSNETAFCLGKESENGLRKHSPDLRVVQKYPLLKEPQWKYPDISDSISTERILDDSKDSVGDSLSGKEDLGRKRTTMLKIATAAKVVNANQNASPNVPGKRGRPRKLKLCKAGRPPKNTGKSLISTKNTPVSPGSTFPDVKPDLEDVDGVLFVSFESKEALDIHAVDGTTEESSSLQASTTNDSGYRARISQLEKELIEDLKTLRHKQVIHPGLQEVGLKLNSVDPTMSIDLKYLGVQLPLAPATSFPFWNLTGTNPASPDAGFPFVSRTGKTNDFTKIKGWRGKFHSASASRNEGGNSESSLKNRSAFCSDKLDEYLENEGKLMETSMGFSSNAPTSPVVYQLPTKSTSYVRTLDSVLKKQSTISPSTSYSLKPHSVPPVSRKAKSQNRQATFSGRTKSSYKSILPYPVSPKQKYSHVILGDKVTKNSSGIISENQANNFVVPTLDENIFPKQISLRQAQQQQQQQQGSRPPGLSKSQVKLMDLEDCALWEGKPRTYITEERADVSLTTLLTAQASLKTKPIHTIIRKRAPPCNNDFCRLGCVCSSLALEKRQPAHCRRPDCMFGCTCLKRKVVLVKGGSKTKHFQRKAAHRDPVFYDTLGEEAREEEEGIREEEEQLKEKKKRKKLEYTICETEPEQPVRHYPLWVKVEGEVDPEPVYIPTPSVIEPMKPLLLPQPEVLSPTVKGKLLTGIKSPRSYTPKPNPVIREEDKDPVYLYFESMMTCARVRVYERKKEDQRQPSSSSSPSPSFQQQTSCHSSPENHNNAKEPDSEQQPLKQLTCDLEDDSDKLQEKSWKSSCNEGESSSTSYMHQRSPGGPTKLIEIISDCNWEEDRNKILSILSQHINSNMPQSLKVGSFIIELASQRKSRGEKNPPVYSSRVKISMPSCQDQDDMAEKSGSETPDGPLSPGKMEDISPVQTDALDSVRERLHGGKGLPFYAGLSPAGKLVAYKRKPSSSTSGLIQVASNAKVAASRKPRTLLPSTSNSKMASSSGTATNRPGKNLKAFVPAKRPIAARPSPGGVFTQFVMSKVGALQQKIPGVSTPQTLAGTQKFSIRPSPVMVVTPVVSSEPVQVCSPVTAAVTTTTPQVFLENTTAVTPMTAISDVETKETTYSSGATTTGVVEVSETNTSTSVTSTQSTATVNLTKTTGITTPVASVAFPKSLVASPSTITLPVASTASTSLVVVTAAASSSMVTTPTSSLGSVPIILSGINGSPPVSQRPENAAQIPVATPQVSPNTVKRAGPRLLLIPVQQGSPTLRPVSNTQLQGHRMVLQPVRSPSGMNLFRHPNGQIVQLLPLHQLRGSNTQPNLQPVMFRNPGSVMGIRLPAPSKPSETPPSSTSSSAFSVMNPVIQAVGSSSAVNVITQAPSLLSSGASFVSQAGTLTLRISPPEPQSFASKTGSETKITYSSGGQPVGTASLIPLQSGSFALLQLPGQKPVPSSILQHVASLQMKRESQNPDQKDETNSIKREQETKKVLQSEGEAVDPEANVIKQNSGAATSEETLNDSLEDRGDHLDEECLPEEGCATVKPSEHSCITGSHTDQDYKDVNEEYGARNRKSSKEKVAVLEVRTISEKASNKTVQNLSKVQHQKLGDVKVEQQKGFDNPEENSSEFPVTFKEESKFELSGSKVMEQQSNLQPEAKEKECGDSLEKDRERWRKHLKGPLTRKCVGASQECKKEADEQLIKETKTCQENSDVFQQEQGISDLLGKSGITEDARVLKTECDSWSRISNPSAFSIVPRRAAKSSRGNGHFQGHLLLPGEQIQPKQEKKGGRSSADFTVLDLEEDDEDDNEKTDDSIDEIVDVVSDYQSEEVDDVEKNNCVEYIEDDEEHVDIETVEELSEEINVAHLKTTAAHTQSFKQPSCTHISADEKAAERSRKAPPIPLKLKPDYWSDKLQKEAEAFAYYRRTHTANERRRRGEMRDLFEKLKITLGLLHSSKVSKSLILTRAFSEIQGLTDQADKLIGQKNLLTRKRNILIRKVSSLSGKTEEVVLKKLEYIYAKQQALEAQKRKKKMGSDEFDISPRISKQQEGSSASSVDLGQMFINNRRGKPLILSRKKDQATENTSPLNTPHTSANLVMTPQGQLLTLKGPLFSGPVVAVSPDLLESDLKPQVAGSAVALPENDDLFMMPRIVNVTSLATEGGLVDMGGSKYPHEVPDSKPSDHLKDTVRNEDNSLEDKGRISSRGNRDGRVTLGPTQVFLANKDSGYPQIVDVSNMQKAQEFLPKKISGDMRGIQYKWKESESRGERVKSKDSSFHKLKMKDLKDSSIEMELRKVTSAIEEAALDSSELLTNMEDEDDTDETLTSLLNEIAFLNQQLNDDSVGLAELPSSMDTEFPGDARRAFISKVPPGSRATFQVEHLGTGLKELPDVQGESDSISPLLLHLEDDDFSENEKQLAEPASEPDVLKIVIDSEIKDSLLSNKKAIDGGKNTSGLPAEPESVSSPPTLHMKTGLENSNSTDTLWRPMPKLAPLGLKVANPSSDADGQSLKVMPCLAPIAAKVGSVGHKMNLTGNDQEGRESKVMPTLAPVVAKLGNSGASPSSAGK
UniProt O60281: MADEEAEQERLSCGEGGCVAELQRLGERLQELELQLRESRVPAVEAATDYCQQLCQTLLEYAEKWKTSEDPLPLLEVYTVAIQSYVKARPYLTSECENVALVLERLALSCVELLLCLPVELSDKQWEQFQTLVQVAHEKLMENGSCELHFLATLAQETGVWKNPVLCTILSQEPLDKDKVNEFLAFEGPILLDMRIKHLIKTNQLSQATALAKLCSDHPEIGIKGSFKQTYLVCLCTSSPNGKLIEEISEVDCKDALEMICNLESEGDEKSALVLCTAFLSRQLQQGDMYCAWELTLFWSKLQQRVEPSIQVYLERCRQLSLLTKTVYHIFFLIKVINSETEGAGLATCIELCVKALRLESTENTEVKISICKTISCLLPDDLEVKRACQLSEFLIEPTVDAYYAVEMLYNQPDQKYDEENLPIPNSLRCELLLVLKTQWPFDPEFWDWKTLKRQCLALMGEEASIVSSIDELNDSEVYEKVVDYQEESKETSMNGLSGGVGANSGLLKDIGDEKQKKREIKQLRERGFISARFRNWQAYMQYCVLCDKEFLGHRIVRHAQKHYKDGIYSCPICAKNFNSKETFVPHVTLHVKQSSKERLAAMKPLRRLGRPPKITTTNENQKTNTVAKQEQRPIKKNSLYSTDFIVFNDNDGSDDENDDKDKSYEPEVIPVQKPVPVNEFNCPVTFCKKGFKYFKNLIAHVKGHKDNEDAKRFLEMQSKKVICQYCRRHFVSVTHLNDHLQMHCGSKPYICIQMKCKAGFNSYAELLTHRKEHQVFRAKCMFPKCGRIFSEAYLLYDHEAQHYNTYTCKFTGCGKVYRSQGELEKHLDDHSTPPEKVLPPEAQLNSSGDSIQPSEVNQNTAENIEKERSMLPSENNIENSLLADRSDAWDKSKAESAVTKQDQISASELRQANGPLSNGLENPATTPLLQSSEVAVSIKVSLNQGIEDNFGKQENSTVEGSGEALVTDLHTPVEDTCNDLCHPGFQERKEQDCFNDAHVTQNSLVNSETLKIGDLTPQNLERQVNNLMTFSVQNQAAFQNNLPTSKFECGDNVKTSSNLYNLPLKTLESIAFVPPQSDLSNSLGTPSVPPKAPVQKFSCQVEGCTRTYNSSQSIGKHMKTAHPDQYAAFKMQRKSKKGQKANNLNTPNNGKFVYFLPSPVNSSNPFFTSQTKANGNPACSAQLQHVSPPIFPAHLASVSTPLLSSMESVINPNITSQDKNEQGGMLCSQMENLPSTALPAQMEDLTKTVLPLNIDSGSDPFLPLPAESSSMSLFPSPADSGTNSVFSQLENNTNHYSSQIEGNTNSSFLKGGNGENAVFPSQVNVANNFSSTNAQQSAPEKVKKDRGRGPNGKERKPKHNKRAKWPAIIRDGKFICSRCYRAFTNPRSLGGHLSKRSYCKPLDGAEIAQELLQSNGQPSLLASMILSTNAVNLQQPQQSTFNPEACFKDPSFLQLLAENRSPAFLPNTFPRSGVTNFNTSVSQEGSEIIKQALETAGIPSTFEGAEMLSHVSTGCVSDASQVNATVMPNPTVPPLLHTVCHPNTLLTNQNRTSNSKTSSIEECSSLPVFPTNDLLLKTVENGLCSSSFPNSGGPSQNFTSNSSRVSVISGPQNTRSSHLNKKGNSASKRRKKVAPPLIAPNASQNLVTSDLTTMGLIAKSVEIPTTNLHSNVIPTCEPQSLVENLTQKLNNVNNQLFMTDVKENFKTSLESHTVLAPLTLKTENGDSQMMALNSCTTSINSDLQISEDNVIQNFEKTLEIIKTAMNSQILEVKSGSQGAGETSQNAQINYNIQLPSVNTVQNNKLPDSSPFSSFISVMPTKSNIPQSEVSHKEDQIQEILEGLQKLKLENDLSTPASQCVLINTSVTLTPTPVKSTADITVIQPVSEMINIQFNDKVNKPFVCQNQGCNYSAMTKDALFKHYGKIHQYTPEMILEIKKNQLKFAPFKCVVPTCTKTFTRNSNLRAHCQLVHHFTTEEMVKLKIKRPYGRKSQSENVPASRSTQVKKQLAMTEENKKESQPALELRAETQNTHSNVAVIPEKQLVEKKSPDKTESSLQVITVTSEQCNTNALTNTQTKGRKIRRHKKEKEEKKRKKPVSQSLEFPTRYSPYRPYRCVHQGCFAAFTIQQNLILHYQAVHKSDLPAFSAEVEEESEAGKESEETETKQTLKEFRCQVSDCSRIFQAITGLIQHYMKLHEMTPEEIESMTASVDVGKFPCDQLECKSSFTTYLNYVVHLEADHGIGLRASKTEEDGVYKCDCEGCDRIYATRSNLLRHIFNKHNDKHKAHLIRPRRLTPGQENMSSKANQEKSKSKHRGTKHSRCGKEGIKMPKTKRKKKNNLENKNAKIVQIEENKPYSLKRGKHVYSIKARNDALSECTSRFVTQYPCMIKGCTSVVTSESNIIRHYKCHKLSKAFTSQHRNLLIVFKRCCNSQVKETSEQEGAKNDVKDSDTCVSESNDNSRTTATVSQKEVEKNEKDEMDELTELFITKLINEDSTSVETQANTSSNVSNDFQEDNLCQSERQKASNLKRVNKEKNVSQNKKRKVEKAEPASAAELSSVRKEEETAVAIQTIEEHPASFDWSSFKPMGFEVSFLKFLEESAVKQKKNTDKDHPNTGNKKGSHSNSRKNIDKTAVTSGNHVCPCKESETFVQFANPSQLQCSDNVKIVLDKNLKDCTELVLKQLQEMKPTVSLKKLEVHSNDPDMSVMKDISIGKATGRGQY
UniProt Q9H0N5: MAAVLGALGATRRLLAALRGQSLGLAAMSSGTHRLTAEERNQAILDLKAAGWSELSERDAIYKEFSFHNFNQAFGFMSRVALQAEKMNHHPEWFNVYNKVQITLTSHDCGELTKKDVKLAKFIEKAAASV

Compound: Nc1ncnc2c1ncn2[C@@H]1O[C@H](COP(=O)(O)OP(=O)(O)OP(=O)(O)O)[C@@H](O)[C@H]1O [adenosine triphosphate]
Assay: NP40-soluble protein abundance relative to vehicle (solubility fold change) (ratio); higher = more soluble protein in presence of ATP
How it was run: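 Data come from three independent experiments in which Dounce-homogenised Jurkat crude lysate was treated at eight concentrations from 0.1 to 10 mM. Treatment ran 10 min at room temperature and then 3 min at 37 °C, after which 0.8% NP40 and benzonase were added for 60 min at 4 °C before ultracentrifugation. The supernatant underwent TMT labelling and LC-MS/MS, and vsn-normalised intensities were expressed as fold change against the detergent-processed vehicle in each replicate.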

Row | Target | NP40-soluble protein abundance (concentration: 1mM) | NP40-soluble protein abundance (concentration: 2mM) | NP40-soluble protein abundance (concentration: 4mM) | NP40-soluble protein abundance (concentration: 6mM) | NP40-soluble protein abundance (concentration: 8mM) | NP40-soluble protein abundance (concentration: 10mM)
1 | K7EKM7 (UniProt O75264) | 0.917 ± 0.25 | 0.895 ± 0.14 | 0.938 ± 0.32 | 0.94 ± 0.28 | 0.797 ± 0.25 | 0.836 ± 0.26
2 | H3BMM5 and related entries (UniProt Q96AX1+H3BMM5) | 1.02 ± 0.089 | 0.994 ± 0.044 | 0.996 ± 0.02 | 0.932 ± 0.061 | 1.01 ± 0.025 | 1.01 ± 0.039
3 | H3BSW6 and related entries (UniProt Q2VPK5) | 0.991 ± 0.074 | 1.04 ± 0.056 | 0.973 ± 0.05 | 0.968 ± 0.046 | 1.02 ± 0.072 | 1.02 ± 0.036
4 | H7BXF5 and related entries (UniProt Q9H0E3) | 1.01 ± 0.044 | 1.02 ± 0.02 | 1.01 ± 0.025 | 1.04 ± 0.078 | 1.02 ± 0.019 | 1.05 ± 0.034
5 | I3L2N2 and related entries (UniProt O14641) | 0.966 ± 0.059 | 0.973 ± 0.043 | 0.969 ± 0.04 | 1.01 ± 0.06 | 0.934 ± 0.031 | 0.967 ± 0.029
6 | H3BRQ0 and related entries (UniProt Q96CD2) | 0.96 ± 0.021 | 1 ± 0.021 | 1.02 ± 0.037 | 1.01 ± 0.12 | 0.952 ± 0.067 | 0.939 ± 0.025
7 | I3L3S0 and related entries (UniProt Q9Y5R8) | 1.02 ± 0.22 | 0.959 ± 0.13 | 0.979 ± 0.2 | 0.85 ± 0.19 | 0.933 ± 0.11 | 0.987 ± 0.13
8 | K7ELC7 and related entries (UniProt P61353) | 0.876 ± 0.026 | 0.849 ± 0.052 | 0.807 ± 0.039 | 0.824 ± 0.053 | 0.666 ± 0.037 | 0.842 ± 0.048
9 | H0Y7L2 and related entries (UniProt Q96N67) | 1.24 ± 0.045 | 1.21 ± 0.014 | 1.21 ± 0.019 | 1.17 ± 0.023 | 1.26 ± 0.0048 | 1.2 ± 0.058
10 | H0YCE2 and related entries (UniProt Q9BTT0) | 0.89 ± 0.091 | 0.93 ± 0.048 | 0.91 ± 0.016 | 0.95 ± 0.1 | 0.859 ± 0.013 | 0.816 ± 0.056
11 | H7C285 and related entries (UniProt O95858) | 1.05 ± 0.062 | 1.04 ± 0.052 | 1.06 ± 0.092 | 0.981 ± 0.028 | 1.06 ± 0.056 | 1.03 ± 0.055
12 | H0YAA2 and related entries (UniProt O43660) | 0.953 ± 0.039 | 0.975 ± 0.027 | 1.05 ± 0.013 | 1.05 ± 0.07 | 1.14 ± 0.024 | 1.16 ± 0.043
13 | H7C1W4 and related entries (UniProt Q93075+H7C1W4) | 0.984 ± 0.056 | 0.999 ± 0.14 | 1.18 ± 0.15 | 1.15 ± 0.17 | 1.14 ± 0.076 | 1.11 ± 0.024
14 | K7EIY1 and related entries (UniProt Q9Y421) | 0.852 ± 0.029 | 0.868 ± 0.046 | 0.88 ± 0.083 | 0.991 ± 0.088 | 1.01 ± 0.043 | 0.953 ± 0.13
15 | K7EQJ5 and related entries (UniProt P62841) | 0.893 ± 0.087 | 0.848 ± 0.13 | 0.801 ± 0.16 | 0.803 ± 0.22 | 0.745 ± 0.13 | 0.801 ± 0.17
16 | M0QXZ5 and related entries (UniProt Q96B54) | 0.971 ± 0.039 | 0.963 ± 0.016 | 1.04 ± 0.012 | 1.047 ± 0.0072 | 0.942 ± 0.12 | 0.971 ± 0.062
17 | H9KVB4 and related entries (UniProt O15417) | 0.983 ± 0.18 | 1.04 ± 0.015 | 0.964 ± 0.013 | 0.884 ± 0.17 | 0.9296 ± 0.0052 | 1.02 ± 0.015
18 | H3BU53 and related entries (UniProt Q8IWI9) | 1.03 ± 0.027 | 1.03 ± 0.049 | 1.04 ± 0.061 | 1.04 ± 0.1 | 0.994 ± 0.057 | 1.06 ± 0.073
19 | G5E9P3 and related entries (UniProt Q9NYS0) | 1.4 ± 0.2 | 1.22 ± 0.12 | 1.18 ± 0.03 | 1.19 ± 0.025 | 1.09 ± 0.075 | 1.014 ± 0.0066
20 | H7C5D9 and related entries (UniProt O75427) | 1.26 ± 0.17 | 1.26 ± 0.16 | 1.31 ± 0.16 | 1.33 ± 0.2 | 1.24 ± 0.2 | 1.3 ± 0.17
21 | H0YJF3 and related entries (UniProt Q13686) | 0.942 ± 0.027 | 1.01 ± 0.13 | 1.04 ± 0.06 | 0.899 ± 0.12 | 0.907 ± 0.14 | 1.05 ± 0.18
22 | H3BQM0 and related entries (UniProt Q8NDF8) | 1.07 ± 0.064 | 1.19 ± 0.13 | 1.28 ± 0.15 | 1.42 ± 0.05 | 1.46 ± 0.14 | 1.62 ± 0.13
23 | J3KNV1 and related entries (UniProt O60281) | 1.06 ± 0.073 | 1.1 ± 0.023 | 1.12 ± 0.085 | 1.09 ± 0.019 | 1.06 ± 0.076 | 1.07 ± 0.031
24 | M0QXA7 and related entries (UniProt O95785) | 0.981 ± 0.04 | 1.01 ± 0.05 | 0.997 ± 0.035 | 1.02 ± 0.037 | 0.988 ± 0.03 | 1.04 ± 0.025
25 | H0YA20 and related entries (UniProt P52824) | 0.999 ± 0.15 | 0.955 ± 0.086 | 0.993 ± 0.033 | 1.01 ± 0.043 | 1.05 ± 0.14 | 1.01 ± 0.12
26 | J3QQJ0 and related entries (UniProt Q9UHR5) | 0.905 ± 0.011 | 0.88 ± 0.027 | 0.808 ± 0.024 | 0.832 ± 0.019 | 0.759 ± 0.043 | 0.768 ± 0.045
27 | H0YA52 and related entries (UniProt Q9H0N5) | 0.994 ± 0.083 | 1 ± 0.045 | 1.02 ± 0.06 | 1.06 ± 0.1 | 1.07 ± 0.082 | 1.01 ± 0.13
28 | K7ES11 and related entries (UniProt Q9C0C9) | 0.953 ± 0.018 | 0.9618 ± 0.0091 | 0.918 ± 0.012 | 0.95 ± 0.014 | 0.918 ± 0.0099 | 0.9279 ± 0.0068
29 | I3L4I4 and related entries (UniProt O75674) | 0.903 ± 0.029 | 0.8481 ± 0.0066 | 0.899 ± 0.11 | 1.02 ± 0.019 | 0.929 ± 0.055 | 0.935 ± 0.044
30 | H0YM31 and related entries (UniProt Q16822) | 0.993 ± 0.036 | 0.9965 ± 0.0068 | 0.998 ± 0.048 | 0.947 ± 0.03 | 0.96 ± 0.067 | 0.962 ± 0.028

An excerpt of these results, field by field:
K7ELC7 and related entries (UniProt P61353)
  NP40-soluble protein abundance (concentration: 1mM): 0.876 ± 0.026
  NP40-soluble protein abundance (concentration: 2mM): 0.849 ± 0.052
  NP40-soluble protein abundance (concentration: 4mM): 0.807 ± 0.039
  NP40-soluble protein abundance (concentration: 6mM): 0.824 ± 0.053
  NP40-soluble protein abundance (concentration: 8mM): 0.666 ± 0.037
  NP40-soluble protein abundance (concentration: 10mM): 0.842 ± 0.048
H0Y7L2 and related entries (UniProt Q96N67)
  NP40-soluble protein abundance (concentration: 1mM): 1.24 ± 0.045
  NP40-soluble protein abundance (concentration: 2mM): 1.21 ± 0.014
  NP40-soluble protein abundance (concentration: 4mM): 1.21 ± 0.019
  NP40-soluble protein abundance (concentration: 6mM): 1.17 ± 0.023
  NP40-soluble protein abundance (concentration: 8mM): 1.26 ± 0.0048
  NP40-soluble protein abundance (concentration: 10mM): 1.2 ± 0.058
